# Some of the results follow.
# How the values were obtained:
# Assay in all cases: glycan array binding signal (z-score within array); higher = stronger binding
# Conditions in all cases: glycan notation: IUPAC condensed, linker removed
# [1] = biological target: Fuc(a1-2)[Gal(a1-3)]Gal(b1-4)GlcNAc(b1-2)Man(a1-3)[Fuc(a1-2)[Gal(a1-3)]Gal(b1-4)GlcNAc(b1-2)Man(a1-6)]Man(b1-4)GlcNAc(b1-4)[Fuc(a1-6)]GlcNAc
# Outline: (§1)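 Glycan array data came from 3228 arrays in the Consortium for Functional Glycomics database, and only arrays with an available protein sequence were kept. Glycan names were put into IUPAC-condensed notation, and columns mapping to the same glycan were averaged. The binding signal is a within-array Z-score, averaged across arrays of one protein sequence run at different concentrations or buffers and across linkers. A negative Z-score can be read as non-binding.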
# [2] = biological target: Fuc(a1-2)[Gal(a1-3)]Gal(b1-4)GlcNAc(b1-3)GalNAc
# Outline: as §1
# [3] = biological target: Fuc(a1-2)[Gal(a1-3)]Gal(b1-4)GlcNAc(b1-3)[Fuc(a1-2)[Gal(a1-3)]Gal(b1-4)GlcNAc(b1-6)]GalNAc
# Outline: as §1
# [4] = biological target: Fuc(a1-2)[Gal(a1-3)]Gal(b1-4)GlcNAc(b1-6)GalNAc
# Outline: as §1
# [5] = biological target: Fuc(a1-2)[Gal(a1-3)]Gal(b1-4)[Fuc(a1-3)]Glc
# Outline: as §1
# [6] = biological target: Fuc(a1-2)[Gal(a1-3)]Gal(b1-4)[Fuc(a1-3)]GlcNAc
# Outline: as §1
# [7] = biological target: Fuc(a1-2)[Gal(a1-3)]Gal(b1-4)[Fuc(a1-3)]GlcNAc(b1-3)GalNAc
# Outline: as §1
# [8] = biological target: Fuc(a1-2)[Gal(a1-4)]Gal(b1-4)GlcNAc
# Outline: as §1
# [9] = biological target: Fuc(a1-2)[GalNAc(a1-3)]Gal
# Outline: as §1
# [10] = biological target: Fuc(a1-2)[GalNAc(a1-3)]Gal(b1-3)GalNAc(a1-3)[Fuc(a1-2)]Gal(b1-4)GlcNAc
# Outline: as §1
# [11] = biological target: Fuc(a1-2)[GalNAc(a1-3)]Gal(b1-3)GalNAc(b1-3)Gal(a1-4)Gal(b1-4)Glc
# Outline: as §1
# [12] = biological target: Fuc(a1-2)[GalNAc(a1-3)]Gal(b1-3)GlcNAc
# Outline: as §1
# [13] = biological target: Fuc(a1-2)[GalNAc(a1-3)]Gal(b1-3)GlcNAc(b1-2)Man(a1-3)[Fuc(a1-2)[GalNAc(a1-3)]Gal(b1-3)GlcNAc(b1-2)Man(a1-6)]Man(b1-4)GlcNAc(b1-4)GlcNAc
# Outline: as §1
# [14] = biological target: Fuc(a1-2)[GalNAc(a1-3)]Gal(b1-3)GlcNAc(b1-2)Man(a1-3)[Fuc(a1-2)[GalNAc(a1-3)]Gal(b1-3)GlcNAc(b1-2)Man(a1-6)]Man(b1-4)GlcNAc(b1-4)[Fuc(a1-6)]GlcNAc
# Outline: as §1
# [15] = biological target: Fuc(a1-2)[GalNAc(a1-3)]Gal(b1-3)GlcNAc(b1-3)GalNAc
# Outline: as §1
# [16] = biological target: Fuc(a1-2)[GalNAc(a1-3)]Gal(b1-3)GlcNAc(b1-6)GalNAc
# Outline: as §1
# [17] = biological target: Fuc(a1-2)[GalNAc(a1-3)]Gal(b1-4)Glc
# Outline: as §1
# [18] = biological target: Fuc(a1-2)[GalNAc(a1-3)]Gal(b1-4)GlcNAc
# Outline: as §1
# [19] = biological target: Fuc(a1-2)[GalNAc(a1-3)]Gal(b1-4)GlcNAc(b1-2)Man
# Outline: as §1
# [20] = biological target: Fuc(a1-2)[GalNAc(a1-3)]Gal(b1-4)GlcNAc(b1-2)Man(a1-3)[Fuc(a1-2)[GalNAc(a1-3)]Gal(b1-4)GlcNAc(b1-2)Man(a1-6)]Man(b1-4)GlcNAc(b1-4)GlcNAc
# Outline: as §1
# [21] = biological target: Fuc(a1-2)[GalNAc(a1-3)]Gal(b1-4)GlcNAc(b1-2)Man(a1-3)[Fuc(a1-2)[GalNAc(a1-3)]Gal(b1-4)GlcNAc(b1-2)Man(a1-6)]Man(b1-4)GlcNAc(b1-4)[Fuc(a1-6)]GlcNAc
# Outline: as §1
# [22] = biological target: Fuc(a1-2)[GalNAc(a1-3)]Gal(b1-4)GlcNAc(b1-3)Gal(b1-4)GlcNAc
# Outline: as §1
# [23] = biological target: Fuc(a1-2)[GalNAc(a1-3)]Gal(b1-4)GlcNAc(b1-3)Gal(b1-4)GlcNAc(b1-3)Gal(b1-4)GlcNAc
# Outline: as §1
# [24] = biological target: Fuc(a1-2)[GalNAc(a1-3)]Gal(b1-4)GlcNAc(b1-3)GalNAc
# Outline: as §1
# [25] = biological target: Fuc(a1-2)[GalNAc(a1-3)]Gal(b1-4)GlcNAc(b1-3)[Fuc(a1-2)[GalNAc(a1-3)]Gal(b1-4)GlcNAc(b1-6)]GalNAc
# Outline: as §1
# [26] = biological target: Fuc(a1-2)[GalNAc(a1-3)]Gal(b1-4)GlcNAc(b1-6)GalNAc
# Outline: as §1
# [27] = biological target: Fuc(a1-2)[GalNAc(a1-3)]Gal(b1-4)[Fuc(a1-3)]GlcNAc
# Outline: as §1
# [28] = biological target: Fuc(a1-2)[GalNAc(a1-3)]Gal(b1-4)[Fuc(a1-3)]GlcNAc(b1-3)GalNAc
# Outline: as §1
# [29] = biological target: Fuc(a1-2)[GalNAc(a1-4)]Gal(b1-4)GlcNAc
# Outline: as §1
# [30] = biological target: Fuc(a1-2)[GalNAc(b1-3)]Gal
# Outline: as §1
# Fuc(a1-3)GlcNAc = biological target: Fuc(a1-3)GlcNAc
# Outline: as §1
# [31] = biological target: Fuc(a1-3)[Gal(b1-4)]Glc6S
# Outline: as §1
# [32] = biological target: Fuc(a1-3)[Gal(b1-4)]GlcNAc
# Outline: as §1
# [33] = biological target: Fuc(a1-3)[Gal(b1-4)]GlcNAc(b1-2)Man
# Outline: as §1
# [34] = biological target: Fuc(a1-3)[Gal(b1-4)]GlcNAc(b1-2)Man(a1-3)[Fuc(a1-3)[Gal(b1-4)]GlcNAc(b1-2)Man(a1-6)]Man(b1-4)GlcNAc(b1-4)GlcNAc
# Outline: as §1
# [35] = biological target: Fuc(a1-3)[Gal(b1-4)]GlcNAc(b1-2)Man(a1-3)[Fuc(a1-3)[Gal(b1-4)]GlcNAc(b1-2)Man(a1-6)]Man(b1-4)GlcNAc(b1-4)[Fuc(a1-6)]GlcNAc
# Outline: as §1
# [36] = biological target: Fuc(a1-3)[Gal(b1-4)]GlcNAc(b1-3)Gal(b1-3)[Fuc(a1-4)]GlcNAc
# Outline: as §1
# [37] = biological target: Fuc(a1-3)[Gal(b1-4)]GlcNAc(b1-3)Gal(b1-4)[Fuc(a1-3)]GlcNAc
# Outline: as §1
# [38] = biological target: Fuc(a1-3)[Gal(b1-4)]GlcNAc(b1-3)Gal(b1-4)[Fuc(a1-3)]GlcNAc(b1-3)Gal(b1-4)[Fuc(a1-3)]GlcNAc
# Outline: as §1
# [39] = biological target: Fuc(a1-3)[Gal(b1-4)]GlcNAc(b1-3)GalNAc
# Outline: as §1
# [40] = biological target: Fuc(a1-3)[Gal(b1-4)]GlcNAc(b1-6)GalNAc
# Outline: as §1
# [41] = biological target: Fuc(a1-3)[Gal(b1-4)]GlcNAc(b1-6)[Gal(b1-3)GlcNAc(b1-3)]Gal(b1-4)Glc
# Outline: as §1
# [42] = biological target: Fuc(a1-3)[Gal(b1-4)]GlcNAc6S
# Outline: as §1
# [43] = biological target: Fuc(a1-3)[Gal3S(b1-4)]Glc
# Outline: as §1
# [44] = biological target: Fuc(a1-3)[Gal3S(b1-4)]GlcNAc
# Outline: as §1
binder,measurement,setting,value
CM2 (Cordyceps militaris) (protein) MEIAEQNVGKSCAIVNLIPPKEGSNIWTAKQVTIARNLPPNRGTGRHQIDWSFGPVKVTGYVDTTNWEIGVTVSIMGIDLGTVYGNLRDGVVLNVDLFLAKGQVRFYLKNGNEVWVHLSVEIRFDGKFEGDYKIITV,glycan array binding signal (z-score),[1],-0.342
same,glycan array binding signal (z-score),[2],0.967
same,glycan array binding signal (z-score),[3],-0.643
same,glycan array binding signal (z-score),[4],-0.258
same,glycan array binding signal (z-score),[5],-1.02
same,glycan array binding signal (z-score),[6],1.81
same,glycan array binding signal (z-score),[7],0.494
same,glycan array binding signal (z-score),[8],0.665
same,glycan array binding signal (z-score),[9],0.209
same,glycan array binding signal (z-score),[10],-1.09
same,glycan array binding signal (z-score),[11],0.024
same,glycan array binding signal (z-score),[12],1.61
same,glycan array binding signal (z-score),[13],0.606
same,glycan array binding signal (z-score),[14],0.571
same,glycan array binding signal (z-score),[15],1.29
same,glycan array binding signal (z-score),[16],-0.212
same,glycan array binding signal (z-score),[17],0.04
same,glycan array binding signal (z-score),[18],-0.133
same,glycan array binding signal (z-score),[19],-1.45
same,glycan array binding signal (z-score),[20],0.549
same,glycan array binding signal (z-score),[21],0.394
same,glycan array binding signal (z-score),[22],-0.015
same,glycan array binding signal (z-score),[23],0.696
same,glycan array binding signal (z-score),[24],-1.16
same,glycan array binding signal (z-score),[25],-0.271
same,glycan array binding signal (z-score),[26],-0.241
same,glycan array binding signal (z-score),[27],-1.41
same,glycan array binding signal (z-score),[28],0.706
same,glycan array binding signal (z-score),[29],0.106
same,glycan array binding signal (z-score),[30],-1.87
same,glycan array binding signal (z-score),Fuc(a1-3)GlcNAc,-0.826
same,glycan array binding signal (z-score),[31],-1.94
same,glycan array binding signal (z-score),[32],0.057
same,glycan array binding signal (z-score),[33],-1.22
same,glycan array binding signal (z-score),[34],-1.48
same,glycan array binding signal (z-score),[35],1.05
same,glycan array binding signal (z-score),[36],0.702
same,glycan array binding signal (z-score),[37],-0.383
same,glycan array binding signal (z-score),[38],-0.193
same,glycan array binding signal (z-score),[39],-0.54
same,glycan array binding signal (z-score),[40],-0.695
same,glycan array binding signal (z-score),[41],-0.052
same,glycan array binding signal (z-score),[42],0.992
same,glycan array binding signal (z-score),[43],-0.569
same,glycan array binding signal (z-score),[44],-0.3

# 2 entries from above in a different format:
binder	measurement	setting	value
CM2 (Cordyceps militaris) (protein) MEIAEQNVGKSCAIVNLIPPKEGSNIWTAKQVTIARNLPPNRGTGRHQIDWSFGPVKVTGYVDTTNWEIGVTVSIMGIDLGTVYGNLRDGVVLNVDLFLAKGQVRFYLKNGNEVWVHLSVEIRFDGKFEGDYKIITV	glycan array binding signal (z-score)	[9]	0.209
same	glycan array binding signal (z-score)	[10]	-1.09
